Assay results from patent publication US20230416228A1 (Forkhead Biotherapeutics, Inc., priority 2020, published 2023).

Chains of the proteins cited; added tags and fusions are not shown.
UniProt Q12778, whole entry T24A/S256A/S319A: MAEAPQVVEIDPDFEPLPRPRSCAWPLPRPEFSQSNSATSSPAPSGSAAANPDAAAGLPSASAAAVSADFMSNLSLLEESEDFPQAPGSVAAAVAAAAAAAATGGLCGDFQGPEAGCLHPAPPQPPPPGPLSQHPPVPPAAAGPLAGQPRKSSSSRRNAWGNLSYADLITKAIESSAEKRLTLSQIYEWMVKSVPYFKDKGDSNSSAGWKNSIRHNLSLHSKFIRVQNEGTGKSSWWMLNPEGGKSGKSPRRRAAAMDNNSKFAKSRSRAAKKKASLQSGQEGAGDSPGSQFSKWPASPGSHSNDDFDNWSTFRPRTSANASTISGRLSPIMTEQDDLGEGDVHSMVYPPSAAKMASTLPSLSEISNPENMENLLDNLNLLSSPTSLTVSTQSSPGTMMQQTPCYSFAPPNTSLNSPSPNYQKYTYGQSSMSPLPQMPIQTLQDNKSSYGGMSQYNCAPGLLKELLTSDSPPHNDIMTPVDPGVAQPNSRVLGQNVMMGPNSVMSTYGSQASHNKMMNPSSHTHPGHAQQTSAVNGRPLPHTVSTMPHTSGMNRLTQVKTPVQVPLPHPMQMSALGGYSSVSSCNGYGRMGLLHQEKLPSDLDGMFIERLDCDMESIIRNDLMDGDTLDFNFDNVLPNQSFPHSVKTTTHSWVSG

Each compound was assayed against human FOXO1 (constitutively active form Thr24Ala, Ser256Ala, Ser319Ala) (Homo sapiens, UniProt Q12778, S256A/S319A/T24A) (assay: FOXO1 inhibitor activity assay: cell-based transcriptional (luciferase) reporter assay in HEK293 cells). Conditions: HEK293 cells transfected with insulin response element firefly luciferase reporter, FOXO1 and Renilla luciferase; 10-point dose response 50 μM to 2.5 nM; 24 hours.

Q: For C[C@@H]1CN(c2ccc(C(=O)Nc3cc(-c4nc5cc(N6CCOCC6)ccc5[nH]4)n(C)n3)cn2)C[C@H](C)N1, which IC50 is on record?
A: The IC50 was under 100 nM.

Q: With COc1cc(F)c2[nH]c(-c3cc(NC(=O)c4ccc(N5CCN(C)CC5)nc4)n[nH]3)nc2c1 as the compound, how does the IC50 read?
A: The IC50 was over 1000 nM.

Q: How did the IC50 turn out when COc1ccc(C(=O)Nc2cc(-c3nc4cc(N5CCOCC5)ccc4[nH]3)n(C)n2)cc1Cl was run?
A: The IC50 was under 100 nM.

The structures given here were assigned with low confidence; some may be wrong.
